What all share (test): protein microarray (ProtoArray v5.0), streptavidin-Alexa Fluor 647
Details in all cases: 3'-biotin; 20 mM Tris (pH 7.5), 5 mM MgCl2, 100 mM KCl, 0.1% Tween-20, A/T-rich and random oligonucleotide blockers; temperature not stated; high values mean tight binding

By UniProt entry, the sequences of proteins in these tests, tags left out. Where a name states a change or a piece, a line headed by the entry shows the natural chain unless it says otherwise.
UniProt P06748, whole entry: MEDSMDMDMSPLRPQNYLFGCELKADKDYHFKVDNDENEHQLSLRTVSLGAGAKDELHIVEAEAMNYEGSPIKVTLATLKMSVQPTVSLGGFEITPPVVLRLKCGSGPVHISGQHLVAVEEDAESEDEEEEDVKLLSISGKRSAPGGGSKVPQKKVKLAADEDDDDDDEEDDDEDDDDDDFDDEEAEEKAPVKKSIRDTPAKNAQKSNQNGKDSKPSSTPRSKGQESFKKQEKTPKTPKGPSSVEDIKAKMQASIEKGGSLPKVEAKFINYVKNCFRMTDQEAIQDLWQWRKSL
UniProt Q9BRJ7: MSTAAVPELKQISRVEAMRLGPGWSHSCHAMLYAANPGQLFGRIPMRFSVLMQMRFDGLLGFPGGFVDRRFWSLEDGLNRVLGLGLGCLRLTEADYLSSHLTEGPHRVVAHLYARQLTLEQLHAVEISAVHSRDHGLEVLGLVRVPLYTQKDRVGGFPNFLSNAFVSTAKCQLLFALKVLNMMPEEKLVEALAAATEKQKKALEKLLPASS

In assay [1] the test system is NMNAT2 (human).
The target in assay [2] is T1, NMT2 (UniProt O60551).
T1 sequence: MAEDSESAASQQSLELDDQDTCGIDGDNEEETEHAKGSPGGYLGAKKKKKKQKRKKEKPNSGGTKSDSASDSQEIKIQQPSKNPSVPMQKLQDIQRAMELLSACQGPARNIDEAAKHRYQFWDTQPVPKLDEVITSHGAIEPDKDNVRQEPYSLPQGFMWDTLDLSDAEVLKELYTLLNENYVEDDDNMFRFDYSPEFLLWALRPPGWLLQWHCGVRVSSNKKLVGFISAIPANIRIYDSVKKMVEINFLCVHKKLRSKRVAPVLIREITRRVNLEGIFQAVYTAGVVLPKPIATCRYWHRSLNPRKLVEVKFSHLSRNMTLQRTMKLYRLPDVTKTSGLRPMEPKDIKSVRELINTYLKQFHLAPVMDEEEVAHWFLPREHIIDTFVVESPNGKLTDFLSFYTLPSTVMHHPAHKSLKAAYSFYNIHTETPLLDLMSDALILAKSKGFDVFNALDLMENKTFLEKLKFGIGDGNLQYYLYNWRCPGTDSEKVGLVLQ

The target in assay [3] is T2, NOLC1 (UniProt Q14978).
T2 sequence: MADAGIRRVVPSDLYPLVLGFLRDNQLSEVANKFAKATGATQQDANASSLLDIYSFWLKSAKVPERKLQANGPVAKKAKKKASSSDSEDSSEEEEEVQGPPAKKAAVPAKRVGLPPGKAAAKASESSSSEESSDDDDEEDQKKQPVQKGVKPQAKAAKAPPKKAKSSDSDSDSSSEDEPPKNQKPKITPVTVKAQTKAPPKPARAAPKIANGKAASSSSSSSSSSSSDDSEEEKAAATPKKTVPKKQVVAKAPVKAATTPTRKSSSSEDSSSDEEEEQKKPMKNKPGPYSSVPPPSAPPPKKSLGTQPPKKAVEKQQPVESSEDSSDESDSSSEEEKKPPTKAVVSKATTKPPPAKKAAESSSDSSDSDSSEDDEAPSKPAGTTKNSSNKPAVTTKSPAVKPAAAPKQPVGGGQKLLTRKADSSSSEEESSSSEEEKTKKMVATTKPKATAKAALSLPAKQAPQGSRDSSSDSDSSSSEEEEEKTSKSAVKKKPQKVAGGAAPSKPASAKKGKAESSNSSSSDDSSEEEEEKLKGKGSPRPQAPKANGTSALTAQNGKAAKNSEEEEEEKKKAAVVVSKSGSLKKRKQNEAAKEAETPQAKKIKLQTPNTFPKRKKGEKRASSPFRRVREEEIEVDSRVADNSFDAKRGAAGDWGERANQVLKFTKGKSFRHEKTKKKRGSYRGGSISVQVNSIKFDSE

For assay [4], the system named is NPL (human).
The target in assay [5] is NPM1 (UniProt P06748).
The test system of assay [6] is NRARP (human).
The test system of assay [7] is NRBF2 (human).
In assay [8] the test system is NTS (human).
Assay [9] concerns NUCB1 (human).
In assay [10] the target is NUDT16L1 (UniProt Q9BRJ7).

Some of the results follow. For some of these results: Construct or isoform of the protein are uncertain.

Take “GGTGACAGGGGTATGGGGAGGGG [G4-2 biotinylated (Ct1)]”: the binding signal in assay [1] is -0.391 z-score; in assay [2] it was 4.43 z-score; in assay [3], 3.37 z-score; in assay [4] it was -0.397 z-score; in assay [5] it was 3.73 z-score; in [6] it was -0.385 z-score. Also, the binding signal in [7] was -0.399 z-score; in assay [8], -0.375 z-score; in [9] it was -0.372 z-score; in assay [10], 3.08 z-score.

The record behind these values is publication PMC5996148.
